Two sequences from publication PMC4089491, “BuD, a helix–loop–helix DNA-binding domain for genome modification” can be followed below.

Construct, isoform or probe ends are uncertain for at least one entry. A negative result means that nothing was seen under these conditions. Where a protein sequence is shown, tags need not be part of it.

This data set addresses T1, BurrH (Burkholderia rhizoxinica) (UniProt E5AV36).
T1 sequence (looked up, limits assumed): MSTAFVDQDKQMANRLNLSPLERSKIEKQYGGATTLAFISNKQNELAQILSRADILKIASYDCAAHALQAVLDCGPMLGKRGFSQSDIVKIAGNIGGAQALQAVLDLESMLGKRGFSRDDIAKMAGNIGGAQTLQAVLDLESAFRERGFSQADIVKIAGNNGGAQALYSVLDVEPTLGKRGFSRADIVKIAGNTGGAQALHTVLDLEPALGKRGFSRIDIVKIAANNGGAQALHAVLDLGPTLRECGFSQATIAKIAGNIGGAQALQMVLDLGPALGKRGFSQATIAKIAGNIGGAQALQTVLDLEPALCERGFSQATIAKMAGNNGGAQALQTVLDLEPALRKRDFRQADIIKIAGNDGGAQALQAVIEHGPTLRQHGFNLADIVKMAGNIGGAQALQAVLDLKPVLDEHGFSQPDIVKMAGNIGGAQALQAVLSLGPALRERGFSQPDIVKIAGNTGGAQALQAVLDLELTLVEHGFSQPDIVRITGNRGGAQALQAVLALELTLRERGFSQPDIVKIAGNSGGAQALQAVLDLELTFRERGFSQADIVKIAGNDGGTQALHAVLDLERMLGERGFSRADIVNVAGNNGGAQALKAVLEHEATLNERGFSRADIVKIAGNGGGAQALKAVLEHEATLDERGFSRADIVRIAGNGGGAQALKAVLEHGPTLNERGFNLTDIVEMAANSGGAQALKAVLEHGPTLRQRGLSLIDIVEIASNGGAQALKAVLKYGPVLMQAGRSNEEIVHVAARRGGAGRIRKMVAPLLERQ
In words: ITC. To be noted: FA and ITC: 25 mM HEPES pH 8, 150 mM NaCl, 0.2 mM TCEP, 298 K, recombinant protein.

In the case of “TTAAGAGAAGCAAATACGTTATA [BurrH target ssDNA]”, the binding result (single-stranded DNA) is “no binding”.
As to “UUAAGAGAAGCAAAUACGUUAUA / UAUAACGUAUUUGCAACUCUUAA [BurrH target RNA duplex]”, the binding result is listed as “no binding”.
